Experimental data taken from publication PMC3406007.
These are yes or no findings as the source states them, for the method shown. A result given as binding can be weak or reduced; the word gives no strength.

By UniProt entry, the sequences of proteins in these tests, tags left out. Where a name states a change or a piece, a line headed by the entry shows the natural chain unless it says otherwise.
UniProt Q9M2R1: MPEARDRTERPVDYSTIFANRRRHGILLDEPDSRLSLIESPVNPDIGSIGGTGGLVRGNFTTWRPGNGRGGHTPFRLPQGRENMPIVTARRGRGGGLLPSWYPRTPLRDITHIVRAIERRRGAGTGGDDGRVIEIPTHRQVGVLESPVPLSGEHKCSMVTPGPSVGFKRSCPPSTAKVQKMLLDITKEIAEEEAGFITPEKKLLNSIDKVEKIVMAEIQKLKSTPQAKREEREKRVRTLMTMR

Tests used:
[1] = molecular target: OSD1ΔMR, yeast two-hybrid bait (Arabidopsis thaliana) (UniProt Q9M2R1); experiment: two-hybrid; OSD1 mutant alleles as bait (pDEST32) against CCS52A1 as prey (pDEST22), cotransformation into yeast strain PJ69-4a
[2] = molecular target: OSD1ΔD′, yeast two-hybrid bait (Arabidopsis thaliana) (UniProt Q9M2R1); experiment: as above

binding [1]: binds
binding [2]: binds
B1: CCS52A1, yeast two-hybrid prey (protein, UniProt Q8L3Z8 1-483)
chain: MEEEDPTASNVITNSNSSSMRNLSPAMNTPVVSLESRINRLINANQSQSPSPSSLSRSIYSDRFIPSRSGSNFALFDLSPSPSKDGKEDGAGSYATLLRAAMFGPETPEKRDITGFSSSRNIFRFKTETHRSLNSFSPFGVDDDSPGVSHSGPVKAPRKVPRSPYKVLDAPALQDDFYLNLVDWSAQNVLAVGLGNCVYLWNACSSKVTKLCDLGAEDSVCSVGWALRGTHLAVGTSTGKVQIWDASRCKRTRTMEGHRLRVGALAWGSSVLSSGSRDKSILQRDIRCQEDHVSKLAGHKSEVCGLKWSYDNRELASGGNDNRLFVWNQHSTQPVLKYSEHTAAVKAIAWSPHVHGLLASGGGTADRCIRFWNTTTNTHLSSIDTCSQVCNLAWSKNVNELVSTHGYSQNQIIVWKYPTMSKIATLTGHTYRVLYLAVSPDGQTIVTGAGDETLRFWNVFPSPKSQNTDSEIGSSFFGRTTIR
